Results are given in words; binding and its absence hold for the method and conditions named. Binding seen in cells or lysates may run through a third protein. A yes stands for co-enrichment or nearness to the bait. Other partners may have been found.
Tests used:
Test in all cases: affinity purification with mass spectrometry; stable HEK293F lines with Protein A-TEV-SBP tagged baits; nuclear extract (INTS4, INTS5) or S100 fraction (INTS4, INTS10); IgG beads, TEV elution, streptavidin beads, desthiobiotin elution, 150 mM KCl, 20 mM HEPES-KOH pH 7.8; TMT quantitative mass spectrometry, enrichment against the INTS4 …
[1] = molecular target: Protein A-TEV-SBP N-terminal tagged INTS4 (UniProt Q96HW7)
[2] = molecular target: Protein A-TEV-SBP N-terminal tagged INTS5 (UniProt Q6P9B9)
[3] = molecular target: Protein A-TEV-SBP N-terminal tagged INTS10 (UniProt Q9NVR2)

Protein sequences, listed by entry. Tags and fused reporters are not part of them.
UniProt Q96HW7: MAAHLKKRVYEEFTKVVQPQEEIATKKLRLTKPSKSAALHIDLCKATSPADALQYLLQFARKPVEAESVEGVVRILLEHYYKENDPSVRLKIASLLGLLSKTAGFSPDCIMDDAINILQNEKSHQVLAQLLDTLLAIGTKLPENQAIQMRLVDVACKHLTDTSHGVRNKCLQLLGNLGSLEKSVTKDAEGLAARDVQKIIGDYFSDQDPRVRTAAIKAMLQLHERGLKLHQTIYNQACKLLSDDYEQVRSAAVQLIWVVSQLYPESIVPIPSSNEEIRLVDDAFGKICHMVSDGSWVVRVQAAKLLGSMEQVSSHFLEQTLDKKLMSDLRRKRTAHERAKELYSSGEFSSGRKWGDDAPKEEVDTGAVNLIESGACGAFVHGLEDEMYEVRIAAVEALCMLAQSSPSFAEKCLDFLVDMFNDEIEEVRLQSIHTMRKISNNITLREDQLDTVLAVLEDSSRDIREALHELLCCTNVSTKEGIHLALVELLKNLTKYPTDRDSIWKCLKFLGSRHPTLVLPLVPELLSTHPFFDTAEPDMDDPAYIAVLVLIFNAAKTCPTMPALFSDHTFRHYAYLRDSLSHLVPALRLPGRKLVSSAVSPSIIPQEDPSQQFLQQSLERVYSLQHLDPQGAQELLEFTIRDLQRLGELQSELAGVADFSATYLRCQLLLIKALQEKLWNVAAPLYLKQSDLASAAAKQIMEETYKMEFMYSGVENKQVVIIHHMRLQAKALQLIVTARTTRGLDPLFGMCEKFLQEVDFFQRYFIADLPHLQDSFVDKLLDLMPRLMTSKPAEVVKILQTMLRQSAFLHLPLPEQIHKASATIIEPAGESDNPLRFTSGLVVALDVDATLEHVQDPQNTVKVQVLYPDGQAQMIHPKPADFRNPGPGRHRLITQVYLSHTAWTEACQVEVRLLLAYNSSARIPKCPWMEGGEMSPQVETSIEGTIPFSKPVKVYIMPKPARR
UniProt Q6P9B9: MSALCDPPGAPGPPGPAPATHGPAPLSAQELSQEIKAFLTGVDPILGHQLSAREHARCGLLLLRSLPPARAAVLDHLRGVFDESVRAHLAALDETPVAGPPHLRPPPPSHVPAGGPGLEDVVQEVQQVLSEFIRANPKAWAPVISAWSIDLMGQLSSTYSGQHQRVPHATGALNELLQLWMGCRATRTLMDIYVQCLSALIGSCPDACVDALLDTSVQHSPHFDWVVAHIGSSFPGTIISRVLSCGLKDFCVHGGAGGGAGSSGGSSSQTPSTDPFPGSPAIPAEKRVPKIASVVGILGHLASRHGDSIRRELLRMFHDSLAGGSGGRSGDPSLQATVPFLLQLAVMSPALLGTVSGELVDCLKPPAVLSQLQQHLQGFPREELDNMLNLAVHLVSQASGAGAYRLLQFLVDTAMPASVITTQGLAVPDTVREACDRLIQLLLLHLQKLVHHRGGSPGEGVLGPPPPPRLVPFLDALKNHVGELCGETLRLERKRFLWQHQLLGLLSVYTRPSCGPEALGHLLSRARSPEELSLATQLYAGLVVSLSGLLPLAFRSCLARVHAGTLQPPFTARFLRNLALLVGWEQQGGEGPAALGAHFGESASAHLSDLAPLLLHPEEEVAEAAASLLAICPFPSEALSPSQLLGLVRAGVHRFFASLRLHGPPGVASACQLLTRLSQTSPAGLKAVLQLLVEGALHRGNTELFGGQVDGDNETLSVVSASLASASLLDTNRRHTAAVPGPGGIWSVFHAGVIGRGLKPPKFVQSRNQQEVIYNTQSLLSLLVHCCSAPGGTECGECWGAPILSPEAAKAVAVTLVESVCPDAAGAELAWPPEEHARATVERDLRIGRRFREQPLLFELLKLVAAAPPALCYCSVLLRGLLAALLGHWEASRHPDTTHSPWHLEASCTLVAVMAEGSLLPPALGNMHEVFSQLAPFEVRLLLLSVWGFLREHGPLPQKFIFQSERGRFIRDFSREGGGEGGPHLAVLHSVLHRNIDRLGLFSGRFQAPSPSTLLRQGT
UniProt Q9NVR2: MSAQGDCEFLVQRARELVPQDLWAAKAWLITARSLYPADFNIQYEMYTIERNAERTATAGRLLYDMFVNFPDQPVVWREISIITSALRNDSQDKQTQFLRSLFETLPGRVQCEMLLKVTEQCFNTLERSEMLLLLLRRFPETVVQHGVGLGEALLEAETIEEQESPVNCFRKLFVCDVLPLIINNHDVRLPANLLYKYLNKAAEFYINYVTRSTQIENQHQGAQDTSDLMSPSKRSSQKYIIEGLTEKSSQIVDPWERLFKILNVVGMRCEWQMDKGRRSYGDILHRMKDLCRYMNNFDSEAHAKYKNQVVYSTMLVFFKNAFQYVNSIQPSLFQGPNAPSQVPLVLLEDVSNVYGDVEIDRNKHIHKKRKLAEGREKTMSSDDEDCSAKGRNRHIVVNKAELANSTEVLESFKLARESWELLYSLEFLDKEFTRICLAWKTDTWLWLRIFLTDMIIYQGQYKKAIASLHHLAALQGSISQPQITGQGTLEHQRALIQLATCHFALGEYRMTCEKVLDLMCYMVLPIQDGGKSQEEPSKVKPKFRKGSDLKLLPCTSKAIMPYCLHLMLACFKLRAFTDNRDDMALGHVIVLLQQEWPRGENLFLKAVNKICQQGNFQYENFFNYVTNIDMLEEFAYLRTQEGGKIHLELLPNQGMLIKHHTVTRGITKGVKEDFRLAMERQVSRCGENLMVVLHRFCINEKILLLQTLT
UniProt Q9NVH2: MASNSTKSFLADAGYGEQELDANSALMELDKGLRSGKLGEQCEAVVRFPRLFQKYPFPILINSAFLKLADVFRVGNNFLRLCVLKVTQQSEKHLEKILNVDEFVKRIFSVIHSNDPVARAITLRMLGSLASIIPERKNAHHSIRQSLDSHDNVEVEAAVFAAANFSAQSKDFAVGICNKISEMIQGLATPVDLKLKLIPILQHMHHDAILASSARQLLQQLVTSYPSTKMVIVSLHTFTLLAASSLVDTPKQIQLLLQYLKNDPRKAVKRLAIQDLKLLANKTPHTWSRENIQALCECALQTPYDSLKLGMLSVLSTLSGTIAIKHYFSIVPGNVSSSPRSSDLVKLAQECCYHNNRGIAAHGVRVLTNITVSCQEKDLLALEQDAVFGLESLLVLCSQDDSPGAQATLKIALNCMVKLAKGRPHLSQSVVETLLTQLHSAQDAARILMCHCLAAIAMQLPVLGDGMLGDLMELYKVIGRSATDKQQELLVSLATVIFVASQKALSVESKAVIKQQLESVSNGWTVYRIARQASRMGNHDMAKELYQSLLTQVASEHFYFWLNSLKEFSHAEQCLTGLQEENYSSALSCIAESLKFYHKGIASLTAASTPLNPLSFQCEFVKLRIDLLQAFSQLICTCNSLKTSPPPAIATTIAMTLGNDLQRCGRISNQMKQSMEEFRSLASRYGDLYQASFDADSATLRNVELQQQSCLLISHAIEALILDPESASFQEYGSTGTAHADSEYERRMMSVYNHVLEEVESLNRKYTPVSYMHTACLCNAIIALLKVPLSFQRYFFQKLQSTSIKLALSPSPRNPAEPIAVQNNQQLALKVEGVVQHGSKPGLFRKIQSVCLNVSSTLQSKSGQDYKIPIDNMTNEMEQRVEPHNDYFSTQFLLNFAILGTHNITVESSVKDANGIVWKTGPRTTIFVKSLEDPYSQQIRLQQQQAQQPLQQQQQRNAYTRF
UniProt Q9NVM9: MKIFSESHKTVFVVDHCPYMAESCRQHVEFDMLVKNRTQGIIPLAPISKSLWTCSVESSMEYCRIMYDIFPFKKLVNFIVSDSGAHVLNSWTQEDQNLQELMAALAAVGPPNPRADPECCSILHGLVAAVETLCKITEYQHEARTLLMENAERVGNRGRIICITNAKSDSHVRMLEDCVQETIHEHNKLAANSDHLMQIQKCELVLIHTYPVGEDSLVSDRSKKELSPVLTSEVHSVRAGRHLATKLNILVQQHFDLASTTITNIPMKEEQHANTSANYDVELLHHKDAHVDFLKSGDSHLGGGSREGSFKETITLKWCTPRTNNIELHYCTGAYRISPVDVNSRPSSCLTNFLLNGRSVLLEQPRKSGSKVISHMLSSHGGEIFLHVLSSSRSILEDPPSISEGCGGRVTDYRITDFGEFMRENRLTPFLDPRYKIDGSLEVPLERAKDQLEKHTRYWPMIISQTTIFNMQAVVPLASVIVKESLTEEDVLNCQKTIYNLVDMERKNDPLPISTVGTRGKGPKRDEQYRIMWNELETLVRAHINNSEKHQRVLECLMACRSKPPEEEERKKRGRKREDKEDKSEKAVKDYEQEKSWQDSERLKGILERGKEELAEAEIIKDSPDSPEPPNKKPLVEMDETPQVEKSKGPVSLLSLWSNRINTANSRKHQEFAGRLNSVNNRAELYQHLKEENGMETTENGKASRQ
UniProt Q96SY0: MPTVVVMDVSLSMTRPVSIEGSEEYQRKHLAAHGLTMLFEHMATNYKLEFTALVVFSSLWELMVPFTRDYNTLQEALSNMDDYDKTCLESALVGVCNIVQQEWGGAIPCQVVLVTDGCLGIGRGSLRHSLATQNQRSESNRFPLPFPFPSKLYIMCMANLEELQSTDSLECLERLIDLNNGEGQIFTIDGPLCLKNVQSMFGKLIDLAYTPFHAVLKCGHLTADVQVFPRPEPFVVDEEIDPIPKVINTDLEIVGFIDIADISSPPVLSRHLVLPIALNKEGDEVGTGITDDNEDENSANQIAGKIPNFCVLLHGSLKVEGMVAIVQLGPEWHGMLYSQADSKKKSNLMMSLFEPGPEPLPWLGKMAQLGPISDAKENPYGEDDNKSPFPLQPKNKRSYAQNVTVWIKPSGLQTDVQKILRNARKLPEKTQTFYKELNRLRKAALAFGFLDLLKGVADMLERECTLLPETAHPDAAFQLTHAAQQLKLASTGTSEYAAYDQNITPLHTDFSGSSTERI
UniProt Q75QN2: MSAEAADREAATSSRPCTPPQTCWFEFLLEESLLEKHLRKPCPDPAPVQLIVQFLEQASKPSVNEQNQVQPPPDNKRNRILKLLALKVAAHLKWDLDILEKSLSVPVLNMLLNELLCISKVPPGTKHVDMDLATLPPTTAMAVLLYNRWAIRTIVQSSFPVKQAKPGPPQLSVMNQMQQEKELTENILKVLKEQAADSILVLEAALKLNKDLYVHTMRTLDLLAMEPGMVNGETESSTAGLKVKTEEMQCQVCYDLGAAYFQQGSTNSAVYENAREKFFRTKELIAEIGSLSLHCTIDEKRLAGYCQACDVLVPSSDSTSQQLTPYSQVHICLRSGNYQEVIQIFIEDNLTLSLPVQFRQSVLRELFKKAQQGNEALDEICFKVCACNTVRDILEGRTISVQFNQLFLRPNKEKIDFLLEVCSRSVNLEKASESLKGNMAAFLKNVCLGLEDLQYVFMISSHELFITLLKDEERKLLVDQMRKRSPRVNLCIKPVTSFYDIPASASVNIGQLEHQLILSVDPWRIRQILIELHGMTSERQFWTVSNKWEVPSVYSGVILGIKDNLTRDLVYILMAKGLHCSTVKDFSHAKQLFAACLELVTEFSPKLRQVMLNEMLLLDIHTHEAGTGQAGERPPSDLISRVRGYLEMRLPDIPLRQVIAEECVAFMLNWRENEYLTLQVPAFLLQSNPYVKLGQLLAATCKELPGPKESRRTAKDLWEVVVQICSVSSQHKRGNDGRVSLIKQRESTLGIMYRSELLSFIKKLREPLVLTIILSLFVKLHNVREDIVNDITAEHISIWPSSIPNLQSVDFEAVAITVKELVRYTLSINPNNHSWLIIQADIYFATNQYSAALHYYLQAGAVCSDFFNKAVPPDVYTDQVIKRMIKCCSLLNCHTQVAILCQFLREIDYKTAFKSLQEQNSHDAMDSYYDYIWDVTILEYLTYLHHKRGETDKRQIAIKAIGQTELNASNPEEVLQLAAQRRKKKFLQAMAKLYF
UniProt Q9NV88: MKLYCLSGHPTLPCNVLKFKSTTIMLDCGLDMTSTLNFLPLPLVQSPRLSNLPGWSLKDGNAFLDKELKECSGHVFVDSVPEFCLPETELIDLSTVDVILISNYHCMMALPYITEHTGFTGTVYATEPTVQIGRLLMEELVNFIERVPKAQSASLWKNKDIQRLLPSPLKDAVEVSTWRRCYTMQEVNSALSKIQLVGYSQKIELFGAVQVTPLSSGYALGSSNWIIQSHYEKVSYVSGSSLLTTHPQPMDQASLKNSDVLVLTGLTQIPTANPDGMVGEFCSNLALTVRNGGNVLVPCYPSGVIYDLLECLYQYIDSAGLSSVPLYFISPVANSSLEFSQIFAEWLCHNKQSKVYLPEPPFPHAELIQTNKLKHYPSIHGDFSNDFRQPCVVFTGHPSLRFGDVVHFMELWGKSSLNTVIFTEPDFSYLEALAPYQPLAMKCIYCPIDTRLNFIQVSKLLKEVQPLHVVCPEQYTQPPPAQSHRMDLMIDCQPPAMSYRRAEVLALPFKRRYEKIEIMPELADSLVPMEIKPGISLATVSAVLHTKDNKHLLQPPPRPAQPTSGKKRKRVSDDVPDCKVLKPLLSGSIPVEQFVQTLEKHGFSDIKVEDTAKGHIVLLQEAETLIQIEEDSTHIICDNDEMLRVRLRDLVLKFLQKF

Substance | binding [1] | binding [2] | binding [3]
INTS7 (endogenous) (from UniProt Q9NVH2 1-962) | binds | binds | –
INTS13 (endogenous) (from UniProt Q9NVM9 1-706) | – | – | binds
INTS14 (endogenous) (from UniProt Q96SY0 1-518) (other; other documents disagree on this pair) | – | – | binds

Further lines, results first:

binding [1] | binding [2] | binding [3] | Substance
– | binds | – | INTS8 (endogenous) (from UniProt Q75QN2 1-995)
binds | – | – | INTS9 (endogenous) (from UniProt Q9NV88 1-658)

Reference: PMC7980224
